The source gives many values for each of these; only a part stands here. Where a SMILES comes first, the peptide text is derived from it. Bridges are numbered along the chain shown (N, C = ends). [ ]: non-standard residue; d: D form. The star is where a group is joined. Heptanoyl(5-Me) = CCC(C)CCCC(=O)*; Dab = NCC[C@H](N)C(=O)O
How the values were obtained:
Details in all cases: growth mode: biofilm, 24 h; exposure time: 24 h
tobramycin [1] = compound: T1, NC[C@H]1O[C@H](O[C@H]2[C@H](O)[C@@H](O[C@H]3O[C@H](CO)[C@@H](O)[C@H](N)[C@H]3O)[C@H](N)C[C@@H]2N)[C@H](N)C[C@@H]1O [tobramycin]; assay: minimum concentration of killing, 1-log CFU reduction of biofilm (MCK90); higher = more biofilm tolerance
Experimental: (§1)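 Clinical P. aeruginosa isolates were grown as static biofilms for 24 h at 37 °C in LB in half-area 96-well plates, then exposed for 24 h to tobramycin at 1, 4, 16, 64, 256 or […]. Surviving CFU were counted by spotting serial dilutions. MCK is the lowest tested concentration giving the stated log reduction in CFU versus an untreated control; '>1024' means the reduction was not reached at the top dose, and 1 is the lowest dose tested (≤1).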

tobramycin [2] = compound: T1, tobramycin; assay: minimum concentration eradicating biofilm below detection limit (MCK-E); higher = more biofilm tolerance
Experimental: as §1

colistin [3] = compound: T2, CCC(C)CCCC(=O)N[C@@H](CCN)C(=O)N[C@H](C(=O)N[C@@H](CCN)C(=O)N[C@H]1CCNC(=O)[C@H]([C@@H](C)O)NC(=O)[C@H](CCN)NC(=O)[C@H](CCN)NC(=O)[C@H](CC(C)C)NC(=O)[C@@H](CC(C)C)NC(=O)[C@H](CCN)NC1=O)[C@@H](C)O [colistin]; assay: minimum concentration of killing, 1-log CFU reduction of biofilm (MCK90); higher = more biofilm tolerance
Experimental: as §1, with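 “colistin” for “tobramycin”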

colistin [4] = compound: T2, colistin; assay: minimum concentration eradicating biofilm below detection limit (MCK-E); higher = more biofilm tolerance
Experimental: as §1, with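 “colistin” for “tobramycin”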

tobramycin [5] = compound: T1, tobramycin; assay: minimum concentration of killing, 2-log CFU reduction of biofilm (MCK99); higher = more biofilm tolerance
Experimental: as §1

colistin [6] = compound: T2, colistin; assay: as above
Experimental: as §1, with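 “colistin” for “tobramycin”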

colistin [7] = compound: T2, colistin; assay: minimum concentration of killing, 4-log CFU reduction of biofilm (MCK99.99); higher = more biofilm tolerance
Experimental: as §1, with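 “colistin” for “tobramycin”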

tobramycin [8] = compound: T1, tobramycin; assay: as above
Experimental: as §1

Row | Test System | minimum concentration of killing (tobramycin [1]) | minimum concentration eradicating biofilm below detection limit (tobramycin [2]) | minimum concentration of killing (colistin [3]) | minimum concentration eradicating biofilm below detection limit (colistin [4]) | minimum concentration of killing (tobramycin [5]) | minimum concentration of killing (colistin [6]) | minimum concentration of killing (colistin [7]) | minimum concentration of killing (tobramycin [8])
1 | Pseudomonas aeruginosa clinical isolate F2394 | 1020 µg/mL | > 1020 µg/mL | ≤ 1 µg/mL | 256 µg/mL | > 1020 µg/mL | 64 µg/mL | 256 µg/mL | > 1020 µg/mL
2 | Pseudomonas aeruginosa clinical isolate F2805 | 64 µg/mL | > 1020 µg/mL | 64 µg/mL | 256 µg/mL | 256 µg/mL | 256 µg/mL | 256 µg/mL | 1020 µg/mL
3 | Pseudomonas aeruginosa clinical isolate F2856 | 1020 µg/mL | > 1020 µg/mL | 16 µg/mL | 256 µg/mL | > 1020 µg/mL | 64 µg/mL | 256 µg/mL | > 1020 µg/mL
4 | Pseudomonas aeruginosa clinical isolate F2942 | 256 µg/mL | > 1020 µg/mL | 256 µg/mL | 256 µg/mL | > 1020 µg/mL | 256 µg/mL | 256 µg/mL | > 1020 µg/mL
5 | Pseudomonas aeruginosa clinical isolate M70563004 | 4 µg/mL | 64 µg/mL | 64 µg/mL | 256 µg/mL | 16 µg/mL | 256 µg/mL | 256 µg/mL | 16 µg/mL
6 | Pseudomonas aeruginosa clinical isolate M70564993 | 4 µg/mL | 256 µg/mL | 256 µg/mL | 256 µg/mL | 64 µg/mL | 256 µg/mL | 256 µg/mL | 256 µg/mL
7 | Pseudomonas aeruginosa clinical isolate M70565254 | ≤ 1 µg/mL | 256 µg/mL | 64 µg/mL | 256 µg/mL | 4 µg/mL | 256 µg/mL | 256 µg/mL | 64 µg/mL
8 | Pseudomonas aeruginosa clinical isolate M70565897 | 16 µg/mL | 256 µg/mL | 256 µg/mL | 256 µg/mL | 64 µg/mL | 256 µg/mL | 256 µg/mL | 256 µg/mL
9 | Pseudomonas aeruginosa clinical isolate M70604538 | 4 µg/mL | 256 µg/mL | 256 µg/mL | 1020 µg/mL | 4 µg/mL | 1020 µg/mL | 1020 µg/mL | 16 µg/mL
10 | Pseudomonas aeruginosa clinical isolate M70608424 | 4 µg/mL | 256 µg/mL | 64 µg/mL | 1020 µg/mL | 16 µg/mL | 256 µg/mL | 1020 µg/mL | 64 µg/mL
11 | Pseudomonas aeruginosa clinical isolate M70640096 | 16 µg/mL | 64 µg/mL | 256 µg/mL | 256 µg/mL | 16 µg/mL | 256 µg/mL | 256 µg/mL | 16 µg/mL
12 | Pseudomonas aeruginosa clinical isolate M70641593 | 64 µg/mL | 1020 µg/mL | 256 µg/mL | 256 µg/mL | 64 µg/mL | 256 µg/mL | 256 µg/mL | 1020 µg/mL
13 | Pseudomonas aeruginosa clinical isolate M70646050 | ≤ 1 µg/mL | 64 µg/mL | 256 µg/mL | 256 µg/mL | 4 µg/mL | 256 µg/mL | 256 µg/mL | 64 µg/mL
14 | Pseudomonas aeruginosa clinical isolate M70646077 | ≤ 1 µg/mL | > 1020 µg/mL | 16 µg/mL | 1020 µg/mL | ≤ 1 µg/mL | 16 µg/mL | 1020 µg/mL | > 1020 µg/mL
15 | Pseudomonas aeruginosa clinical isolate M70647319 | 4 µg/mL | > 1020 µg/mL | 4 µg/mL | 256 µg/mL | 256 µg/mL | 256 µg/mL | 256 µg/mL | 256 µg/mL
16 | Pseudomonas aeruginosa clinical isolate M70649365 | 16 µg/mL | 1020 µg/mL | 256 µg/mL | 256 µg/mL | 16 µg/mL | 256 µg/mL | 256 µg/mL | 256 µg/mL
17 | Pseudomonas aeruginosa clinical isolate M70652746 | 256 µg/mL | 256 µg/mL | 256 µg/mL | 256 µg/mL | 256 µg/mL | 256 µg/mL | 256 µg/mL | 256 µg/mL
18 | Pseudomonas aeruginosa clinical isolate M70656672 | ≤ 1 µg/mL | 64 µg/mL | 64 µg/mL | 256 µg/mL | ≤ 1 µg/mL | 256 µg/mL | 256 µg/mL | 16 µg/mL
19 | Pseudomonas aeruginosa clinical isolate M70663247 | 4 µg/mL | 256 µg/mL | 256 µg/mL | 256 µg/mL | 4 µg/mL | 256 µg/mL | 256 µg/mL | 64 µg/mL
20 | Pseudomonas aeruginosa clinical isolate MD1037 | ≤ 1 µg/mL | 256 µg/mL | 64 µg/mL | 256 µg/mL | 4 µg/mL | 256 µg/mL | 256 µg/mL | 256 µg/mL

Row | Test System | minimum concentration of killing (tobramycin [1]) | minimum concentration eradicating biofilm below detection limit (tobramycin [2]) | minimum concentration of killing (colistin [3]) | minimum concentration eradicating biofilm below detection limit (colistin [4]) | minimum concentration of killing (tobramycin [5]) | minimum concentration of killing (colistin [6]) | minimum concentration of killing (colistin [7]) | minimum concentration of killing (tobramycin [8])
21 | Pseudomonas aeruginosa clinical isolate MD3496 | 16 µg/mL | 256 µg/mL | 64 µg/mL | 256 µg/mL | 256 µg/mL | 256 µg/mL | 256 µg/mL | 256 µg/mL
22 | Pseudomonas aeruginosa clinical isolate MD4301 | 16 µg/mL | 256 µg/mL | 64 µg/mL | 256 µg/mL | 256 µg/mL | 64 µg/mL | 256 µg/mL | 256 µg/mL
23 | Pseudomonas aeruginosa clinical isolate MD6136 | 256 µg/mL | 1020 µg/mL | 256 µg/mL | 256 µg/mL | 256 µg/mL | 256 µg/mL | 256 µg/mL | 256 µg/mL
24 | Pseudomonas aeruginosa clinical isolate MD6439 | ≤ 1 µg/mL | 256 µg/mL | 64 µg/mL | 256 µg/mL | ≤ 1 µg/mL | 256 µg/mL | 256 µg/mL | 256 µg/mL
25 | Pseudomonas aeruginosa clinical isolate MD8034 | ≤ 1 µg/mL | 16 µg/mL | 64 µg/mL | 256 µg/mL | 16 µg/mL | 64 µg/mL | 256 µg/mL | 16 µg/mL
26 | Pseudomonas aeruginosa clinical isolate MD8386 | 256 µg/mL | 1020 µg/mL | 64 µg/mL | 256 µg/mL | 256 µg/mL | 64 µg/mL | 256 µg/mL | 256 µg/mL
27 | Pseudomonas aeruginosa clinical isolate MD8672 | 4 µg/mL | 256 µg/mL | 256 µg/mL | 256 µg/mL | 16 µg/mL | 256 µg/mL | 256 µg/mL | 256 µg/mL
28 | Pseudomonas aeruginosa clinical isolate MD9120 | 4 µg/mL | 64 µg/mL | 64 µg/mL | 256 µg/mL | 16 µg/mL | 256 µg/mL | 256 µg/mL | 64 µg/mL
29 | Pseudomonas aeruginosa clinical isolate MD9121 | 16 µg/mL | 64 µg/mL | 256 µg/mL | 256 µg/mL | 16 µg/mL | 256 µg/mL | 256 µg/mL | 16 µg/mL
30 | Pseudomonas aeruginosa clinical isolate MD9481 | 4 µg/mL | 64 µg/mL | 64 µg/mL | 256 µg/mL | 16 µg/mL | 64 µg/mL | 256 µg/mL | 16 µg/mL
31 | Pseudomonas aeruginosa clinical isolate MD9965_1 | ≤ 1 µg/mL | 64 µg/mL | 256 µg/mL | 256 µg/mL | ≤ 1 µg/mL | 256 µg/mL | 256 µg/mL | 16 µg/mL
32 | Pseudomonas aeruginosa clinical isolate MD9965_2 | ≤ 1 µg/mL | 256 µg/mL | 64 µg/mL | 256 µg/mL | ≤ 1 µg/mL | 64 µg/mL | 256 µg/mL | 64 µg/mL
33 | Pseudomonas aeruginosa clinical isolate MD10010 | 16 µg/mL | 256 µg/mL | 64 µg/mL | 256 µg/mL | 16 µg/mL | 64 µg/mL | 256 µg/mL | 256 µg/mL
34 | Pseudomonas aeruginosa clinical isolate MHH0147 | 4 µg/mL | > 1020 µg/mL | 16 µg/mL | 64 µg/mL | 256 µg/mL | 16 µg/mL | 16 µg/mL | > 1020 µg/mL
35 | Pseudomonas aeruginosa clinical isolate MHH0426 | 1020 µg/mL | > 1020 µg/mL | 16 µg/mL | 64 µg/mL | 1020 µg/mL | 16 µg/mL | 64 µg/mL | > 1020 µg/mL
36 | Pseudomonas aeruginosa clinical isolate MHH0927 | 16 µg/mL | 1020 µg/mL | 4 µg/mL | 64 µg/mL | 256 µg/mL | 64 µg/mL | 64 µg/mL | 1020 µg/mL
37 | Pseudomonas aeruginosa clinical isolate MHH0985 | > 1020 µg/mL | > 1020 µg/mL | 16 µg/mL | 64 µg/mL | > 1020 µg/mL | 16 µg/mL | 16 µg/mL | > 1020 µg/mL
38 | Pseudomonas aeruginosa clinical isolate MHH1883 | ≤ 1 µg/mL | > 1020 µg/mL | 64 µg/mL | 64 µg/mL | 64 µg/mL | 64 µg/mL | 64 µg/mL | 256 µg/mL
39 | Pseudomonas aeruginosa clinical isolate MHH2419 | > 1020 µg/mL | > 1020 µg/mL | 256 µg/mL | 256 µg/mL | > 1020 µg/mL | 256 µg/mL | 256 µg/mL | > 1020 µg/mL
40 | Pseudomonas aeruginosa clinical isolate MHH14911 | 64 µg/mL | 1020 µg/mL | 256 µg/mL | 256 µg/mL | 256 µg/mL | 256 µg/mL | 256 µg/mL | 1020 µg/mL

Source: the supplement of paper PMC8920030
